Results are given in words; binding and its absence hold for the method and conditions named. Binding seen in cells or lysates may run through a third protein. Some entries that bind do so weakly or less than the wild type.
Experiments:
Experiment in all cases: co-IP; lysates of activated RBL-2H3 cells (50 mM Tris-HCl, 150 mM NaCl, 1% Triton X-100, 1 mM EDTA, pH 7.5; 4°C); immunoprecipitation with antibodies against Syn4, VAMP2 or VAMP8 and protein G, blot with anti-SNAP-23; cells with or without A23187 pretreatment and peptides or LY294002
[1] = target: T1, vesicle-associated membrane protein 8 (VAMP8) (rat (endogenous in RBL-2H3)) (UniProt Q9WUF4)
T1 sequence: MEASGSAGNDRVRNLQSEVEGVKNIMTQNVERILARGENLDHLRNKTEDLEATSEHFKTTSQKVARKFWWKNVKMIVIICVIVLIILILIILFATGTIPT

Chains of the proteins cited; added tags and fusions are not shown.
UniProt Q08850: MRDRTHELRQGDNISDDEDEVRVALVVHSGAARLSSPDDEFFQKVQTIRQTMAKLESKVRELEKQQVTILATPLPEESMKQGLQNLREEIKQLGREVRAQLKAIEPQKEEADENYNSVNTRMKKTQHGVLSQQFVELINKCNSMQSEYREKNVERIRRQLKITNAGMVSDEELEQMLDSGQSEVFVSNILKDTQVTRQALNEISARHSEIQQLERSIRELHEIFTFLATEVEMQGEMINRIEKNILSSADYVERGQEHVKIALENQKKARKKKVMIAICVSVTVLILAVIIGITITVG
UniProt P63045: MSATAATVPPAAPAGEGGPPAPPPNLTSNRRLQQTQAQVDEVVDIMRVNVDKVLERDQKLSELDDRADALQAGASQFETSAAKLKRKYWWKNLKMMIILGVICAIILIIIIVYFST

[2] = target: syntaxin 4 (rat (endogenous in RBL-2H3)) (UniProt Q08850)
[3] = target: vesicle-associated membrane protein 2 (VAMP2) (rat (endogenous in RBL-2H3)) (UniProt P63045)

Measured: binding

B1: synaptosome-associated protein of 23 kDa (SNAP-23) (protein, UniProt O70377 1-210)
chain: MDDLSPEEIQLRAHQVTDESLESTRRILGLAIESQDAGIKTITMLDEQGEQLNRIEEGMDQINKDMREAEKTLTELNKCCGLCVCPCNRTKNFESGKNYKATWGDGGDSSPSNVVSKQPSRITNGQPQQTTGAASGGYIKRITNDAREDEMEENLTQVGSILGNLKNMALDMGNEIDAQNQQIQKITEKADTNKNRIDIANTRAKKLIDS
binds: all assays above

From article PMC5904360, “Soluble N-Ethylmaleimide-Sensitive Factor Attachment Protein Receptor-Derived Peptides for Regulation of Mast Cell Degranulation” (Frontiers in Immunology, 2018)
